## Cell number after 72 h of treatment

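The test systems are human melanoma cell lines, treated with a pair of drugs for 72 h and then stained and imaged. Each value is the count of nuclei relative to DMSO-treated wells, in %, so that 100 equals the control. Every drug was used at one fixed concentration, the lower of two screened (a fifth of the higher). These are primary screening values without error estimates.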
An unselected part of the screen is shown.
An entry leaves out what has no value listed here.

Drug key:
lenalidomide: Nc1cccc2c1CN(C1CCC(=O)NC1=O)C2=O (stereo unspecified) at 1000 nM
gemcitabine: Nc1ccn([C@@H]2O[C@H](CO)[C@@H](O)C2(F)F)c(=O)n1 at 0.4 nM
Src-I1: COc1cc2ncnc(Nc3ccc(Oc4ccccc4)cc3)c2cc1OC at 2000 nM
embelin: CCCCCCCCCCCC1=C(O)C(=O)C=C(O)C1=O at 1200 nM
BMS-536924: Cc1cc(N2CCOCC2)cc2[nH]c(-c3c(NC[C@@H](O)c4cccc(Cl)c4)cc[nH]c3=O)nc12 at 200 nM
pioglitazone: CCc1ccc(CCOc2ccc(CC3SC(=O)NC3=O)cc2)nc1 (stereo unspecified) at 2000 nM
AZD7762: NC(=O)Nc1cc(-c2cccc(F)c2)sc1C(=O)N[C@H]1CCCNC1 at 20 nM
GW0742: Cc1cc(SCc2sc(-c3ccc(C(F)(F)F)c(F)c3)nc2C)ccc1OCC(=O)O at 2000 nM
BI-D1870: CC(C)CCN1c2nc(Nc3cc(F)c(O)c(F)c3)ncc2N(C)C(=O)C1C (stereo unspecified) at 200 nM
everolimus: CO[C@H]1C[C@@H]2CC[C@@H](C)[C@@](O)(O2)C(=O)C(=O)N2CCCC[C@H]2C(=O)O[C@H]([C@H](C)C[C@@H]2CC[C@@H](OCCO)[C@H](OC)C2)CC(=O)[C@H](C)/C=C(\C)[C@@H](O)[C@@H](OC)C(=O)[C@H](C)C[C@H](C)/C=C/C=C/C=C/1C at 20 nM

With gemcitabine and AZD7762 the screen read A2058: 95.8; LB2518-MEL: 85.3; A101D: 75.0; LOX IMVI: 160.
With BMS-536924 and BI-D1870 the screen read A2058: 91.0; A101D: 79.9; LOX IMVI: 104.
With Src-I1 and gemcitabine the screen read A2058: 97.7; LB2518-MEL: 111; A101D: 111; LOX IMVI: 107; 501mel: 85.1.
With pioglitazone and AZD7762 the screen read A2058: 127; LB2518-MEL: 132; A101D: 88.0; LOX IMVI: 107; 501mel: 86.6.
With BMS-536924 and Src-I1 the screen read A2058: 101; LB2518-MEL: 109; A101D: 93.1; LOX IMVI: 82.1; 501mel: 78.5.
With GW0742 and embelin the screen read A2058: 101; LB2518-MEL: 106; A101D: 104; LOX IMVI: 106; 501mel: 89.7.
With embelin and BMS-536924 the screen read A2058: 126; LB2518-MEL: 108; A101D: 111; LOX IMVI: 87.9; 501mel: 87.3.
With AZD7762 and embelin the screen read A2058: 114; LB2518-MEL: 153; A101D: 92.2; LOX IMVI: 91.7; 501mel: 104.
With GW0742 and BMS-536924 the screen read A2058: 110; LB2518-MEL: 85.5; A101D: 113; LOX IMVI: 96.5; 501mel: 82.2.
With BI-D1870 and pioglitazone the screen read A2058: 102; LB2518-MEL: 93.3; A101D: 87.5; LOX IMVI: 99.2; 501mel: 112.
With everolimus and GW0742 the screen read A2058: 98.3; LB2518-MEL: 117; A101D: 103; LOX IMVI: 96.9; 501mel: 71.3.
With BI-D1870 and everolimus the screen read A2058: 69.1; A101D: 72.3; LOX IMVI: 97.2.
With pioglitazone and embelin the screen read A2058: 98.1; LB2518-MEL: 111; A101D: 75.4; LOX IMVI: 118; 501mel: 75.4.
With everolimus and lenalidomide the screen read A2058: 64.2; LB2518-MEL: 64.3; A101D: 81.7; LOX IMVI: 65.8.
With pioglitazone and lenalidomide the screen read A2058: 93.0; LB2518-MEL: 94.0; A101D: 104; LOX IMVI: 92.6; 501mel: 87.4.
With BI-D1870 and AZD7762 the screen read A2058: 119; LB2518-MEL: 114; A101D: 84.4; LOX IMVI: 118; 501mel: 92.6.
With lenalidomide and embelin the screen read A2058: 104; LB2518-MEL: 106; A101D: 120; LOX IMVI: 120; 501mel: 118.
With gemcitabine and everolimus the screen read A2058: 69.4; LB2518-MEL: 79.3; A101D: 77.3; LOX IMVI: 80.8.
With GW0742 and lenalidomide the screen read A2058: 122; LB2518-MEL: 106; A101D: 108; LOX IMVI: 83.7; 501mel: 79.9.
With gemcitabine and BMS-536924 the screen read A2058: 99.7; LB2518-MEL: 89.9; A101D: 98.4; LOX IMVI: 118.
With AZD7762 and everolimus the screen read A2058: 88.7; LB2518-MEL: 71.7; A101D: 67.8; LOX IMVI: 87.0.
With pioglitazone and gemcitabine the screen read A2058: 92.6; LB2518-MEL: 86.6; A101D: 90.6; LOX IMVI: 160; 501mel: 65.9.
With GW0742 and AZD7762 the screen read A2058: 132; LB2518-MEL: 133; A101D: 84.3; LOX IMVI: 126; 501mel: 113.
With BMS-536924 and everolimus the screen read A2058: 67.3; LB2518-MEL: 78.6; A101D: 80.5; LOX IMVI: 86.7.
With gemcitabine and lenalidomide the screen read A2058: 92.6; LB2518-MEL: 95.9; A101D: 92.2; LOX IMVI: 91.8.
With lenalidomide and Src-I1 the screen read A2058: 95.1; LB2518-MEL: 106; A101D: 118; LOX IMVI: 103; 501mel: 94.1.
With everolimus and embelin the screen read A2058: 55.7; LB2518-MEL: 88.9; A101D: 79.3; LOX IMVI: 117; 501mel: 57.2.
With BI-D1870 and GW0742 the screen read A2058: 98.8; LB2518-MEL: 102; A101D: 71.8; LOX IMVI: 77.8; 501mel: 123.
With GW0742 and gemcitabine the screen read A2058: 93.8; A101D: 100; LOX IMVI: 83.5.
With GW0742 and Src-I1 the screen read A2058: 108; A101D: 112; LOX IMVI: 99.2.
With Src-I1 and AZD7762 the screen read A2058: 120; LB2518-MEL: 132; A101D: 88.6; LOX IMVI: 78.8; 501mel: 97.5.
With pioglitazone and BMS-536924 the screen read A2058: 91.3; LB2518-MEL: 96.6; A101D: 93.7; LOX IMVI: 70.1; 501mel: 101.

For reference, 2 entries once more:

- Src-I1 and AZD7762 | A2058: 120; LB2518-MEL: 132; A101D: 88.6; LOX IMVI: 78.8; 501mel: 97.5
- BI-D1870 and GW0742 | A2058: 98.8; LB2518-MEL: 102; A101D: 71.8; LOX IMVI: 77.8; 501mel: 123

From a melanoma drug combination screen (doi:10.1371/journal.pone.0140310); values rounded.